# In the supplement of paper PMC8728848:
# Some of the results follow.
# B1: GS13814A-bth-462-26-462 (Bacteroides thetaiotaomicron) (protein)
# chain: DDRDNLMVNDQIGLLHSTYTETEIFRGMDTPYQLFVIKSGKGKQETEVSISVDETVLQSYNTDNGTSIQLLPSDCYTILQPALRLNDSDYRKAFDIKWNADRLSDLLSTGKEYGLPIQMSVVQNFISADDERLKTIIVPTIKEPYLQMDVPGMSPVTDFMPTFGDLNERELFVKIRTNYSNDEDISFQIEVDPQLVIDYNTAHGTAYKMLPESSFTVDNKGVILTGMKETFIKIKYHKKGLIPEEGTYLFGDYVLPLRITSVSKYGISPDAASKLYTVKFQPDPIDKKGWSVIDFNNCCTQDGGWYLNMGWGVESLIDNNPGTQWLCRWDVKEPLPYYFVFDMGKEYTLFRFGFANPVAPAAHVWAGTSKAGYVEASIDNENWVKLKDWTSPKIGEPNVNMDVPATQARYIRFVITDTYPTYDGLRVSLGEVYAWGM
# What was measured:
# Assay in all cases: glycan array binding signal (z-score within array); higher = stronger binding
# Conditions in all cases: glycan notation: IUPAC condensed, linker removed
# [1] = target: Man(a1-3)[Man(a1-6)]Man(a1-6)[Man(a1-3)]Man
# Method in brief: (§1)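 Glycan array binding is given as a within-array Z-score, which can be read as non-binding when negative. The arrays, 3228 of them, came from the Consortium for Functional Glycomics database and were retained only where the protein sequence was available. Z-scores were averaged across arrays of the same protein sequence at different concentrations or buffers and across linkers.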
# [2] = target: Man(a1-3)[Man(a1-6)]Man(a1-6)[Man(a1-3)]Man(b1-4)GlcNAc(b1-4)GlcNAc
# Method in brief: as §1
# [3] = target: Man(a1-3)[Man(a1-6)]Man(b1-4)GlcNAc(b1-4)GlcNAc
# Method in brief: as §1
# [4] = target: Man(a1-3)[Man(a1-6)]Man(b1-4)GlcNAc(b1-4)[Fuc(a1-6)]GlcNAc
# Method in brief: as §1
# Man(a1-6)Man = target: Man(a1-6)Man
# Method in brief: as §1
# Man(b1-4)GlcNAc = target: Man(b1-4)GlcNAc
# Method in brief: as §1
# MurNAc(b1-4)GlcNAc = target: MurNAc(b1-4)GlcNAc
# Method in brief: as §1
# Neu5Ac(a2-3)Gal = target: Neu5Ac(a2-3)Gal
# Method in brief: as §1
# [5] = target: Neu5Ac(a2-3)Gal(b1-3)GalNAc
# Method in brief: as §1
# [6] = target: Neu5Ac(a2-3)Gal(b1-3)GalNAc(b1-3)Gal(a1-4)Gal(b1-4)Glc
# Method in brief: as §1
# [7] = target: Neu5Ac(a2-3)Gal(b1-3)GalNAc(b1-4)[Neu5Ac(a2-3)]Gal(b1-4)Glc
# Method in brief: as §1
# [8] = target: Neu5Ac(a2-3)Gal(b1-3)GalNAc(b1-4)[Neu5Ac(a2-8)Neu5Ac(a2-3)]Gal(b1-4)Glc
# Method in brief: as §1
# [9] = target: Neu5Ac(a2-3)Gal(b1-3)GalNAc6S
# Method in brief: as §1
# [10] = target: Neu5Ac(a2-3)Gal(b1-3)GlcNAc
# Method in brief: as §1
# [11] = target: Neu5Ac(a2-3)Gal(b1-3)GlcNAc(b1-2)Man
# Method in brief: as §1
# [12] = target: Neu5Ac(a2-3)Gal(b1-3)GlcNAc(b1-2)Man(a1-3)[GlcNAc(b1-4)][Neu5Ac(a2-3)Gal(b1-3)GlcNAc(b1-2)Man(a1-6)]Man(b1-4)GlcNAc(b1-4)GlcNAc
# Method in brief: as §1
# [13] = target: Neu5Ac(a2-3)Gal(b1-3)GlcNAc(b1-2)Man(a1-3)[Neu5Ac(a2-3)Gal(b1-3)GlcNAc(b1-2)Man(a1-6)]Man(b1-4)GlcNAc(b1-4)GlcNAc
# Method in brief: as §1
# [14] = target: Neu5Ac(a2-3)Gal(b1-3)GlcNAc(b1-3)Gal(b1-3)GlcNAc
# Method in brief: as §1
# [15] = target: Neu5Ac(a2-3)Gal(b1-3)GlcNAc(b1-3)Gal(b1-4)GlcNAc
# Method in brief: as §1
# [16] = target: Neu5Ac(a2-3)Gal(b1-3)GlcNAc(b1-3)GalNAc
# Method in brief: as §1
# [17] = target: Neu5Ac(a2-3)Gal(b1-3)GlcNAc(b1-4)Gal(b1-4)Glc
# Method in brief: as §1
# [18] = target: Neu5Ac(a2-3)Gal(b1-3)GlcNAc(b1-6)GalNAc
# Method in brief: as §1
# [19] = target: Neu5Ac(a2-3)Gal(b1-3)GlcNAc6S
# Method in brief: as §1
# [20] = target: Neu5Ac(a2-3)Gal(b1-3)[Fuc(a1-4)]GlcNAc
# Method in brief: as §1
# [21] = target: Neu5Ac(a2-3)Gal(b1-3)[Fuc(a1-4)]GlcNAc(b1-3)Gal(b1-3)[Fuc(a1-4)]GlcNAc
# Method in brief: as §1
# [22] = target: Neu5Ac(a2-3)Gal(b1-3)[Fuc(a1-4)]GlcNAc(b1-3)Gal(b1-4)[Fuc(a1-3)]GlcNAc
# Method in brief: as §1
# [23] = target: Neu5Ac(a2-3)Gal(b1-3)[GlcNAc(b1-6)]GalNAc
# Method in brief: as §1
# [24] = target: Neu5Ac(a2-3)Gal(b1-3)[Neu5Ac(a2-6)]GalNAc
# Method in brief: as §1
# [25] = target: Neu5Ac(a2-3)Gal(b1-3)[Neu5Ac(a2-6)]GlcNAc(b1-3)[Fuc(a1-3)[Gal(b1-4)]GlcNAc(b1-6)]Gal(b1-4)Glc
# Method in brief: as §1
# [26] = target: Neu5Ac(a2-3)Gal(b1-3)]Neu5Ac(a2-3)Gal(b1-4)]GlcNAc
# Method in brief: as §1
# Neu5Ac(a2-3)Gal(b1-4)Glc = target: Neu5Ac(a2-3)Gal(b1-4)Glc
# Method in brief: as §1
# [27] = target: Neu5Ac(a2-3)Gal(b1-4)GlcNAc
# Method in brief: as §1
# [28] = target: Neu5Ac(a2-3)Gal(b1-4)GlcNAc(b1-2)Man
# Method in brief: as §1
# [29] = target: Neu5Ac(a2-3)Gal(b1-4)GlcNAc(b1-2)Man(a1-3)[GlcNAc(b1-4)][Neu5Ac(a2-3)Gal(b1-4)GlcNAc(b1-2)Man(a1-6)]Man(b1-4)GlcNAc(b1-4)GlcNAc
# Method in brief: as §1
# [30] = target: Neu5Ac(a2-3)Gal(b1-4)GlcNAc(b1-2)Man(a1-3)[Neu5Ac(a2-3)Gal(b1-4)GlcNAc(b1-2)Man(a1-6)]Man(b1-4)GlcNAc(b1-4)GlcNAc
# Method in brief: as §1
# [31] = target: Neu5Ac(a2-3)Gal(b1-4)GlcNAc(b1-2)Man(a1-3)[Neu5Ac(a2-3)Gal(b1-4)GlcNAc(b1-2)Man(a1-6)]Man(b1-4)GlcNAc(b1-4)[Fuc(a1-6)]GlcNAc
# Method in brief: as §1
# [32] = target: Neu5Ac(a2-3)Gal(b1-4)GlcNAc(b1-2)Man(a1-3)[Neu5Ac(a2-6)Gal(b1-4)GlcNAc(b1-2)Man(a1-6)]Man(b1-4)GlcNAc(b1-4)GlcNAc
# Method in brief: as §1
# [33] = target: Neu5Ac(a2-3)Gal(b1-4)GlcNAc(b1-2)[Neu5Ac(a2-3)Gal(b1-4)GlcNAc(b1-4)]Man(a1-3)[GlcNAc(b1-4)][Neu5Ac(a2-3)Gal(b1-4)GlcNAc(b1-2)[Neu5Ac(a2-3)Gal(b1-4)GlcNAc(b1-6)]Man(a1-6)]Man(b1-4)GlcNAc(b1-4)GlcNAc
# Method in brief: as §1
binder,measurement,setting,value
B1,glycan array binding signal (z-score),[1],-1
same,glycan array binding signal (z-score),[2],1.06
same,glycan array binding signal (z-score),[3],-0.492
same,glycan array binding signal (z-score),[4],-0.273
same,glycan array binding signal (z-score),Man(a1-6)Man,0.563
same,glycan array binding signal (z-score),Man(b1-4)GlcNAc,-0.193
same,glycan array binding signal (z-score),MurNAc(b1-4)GlcNAc,0.025
same,glycan array binding signal (z-score),Neu5Ac(a2-3)Gal,-0.969
same,glycan array binding signal (z-score),[5],0.585
same,glycan array binding signal (z-score),[6],0.424
same,glycan array binding signal (z-score),[7],-0.6
same,glycan array binding signal (z-score),[8],-0.072
same,glycan array binding signal (z-score),[9],-0.355
same,glycan array binding signal (z-score),[10],0.144
same,glycan array binding signal (z-score),[11],-0.12
same,glycan array binding signal (z-score),[12],-0.943
same,glycan array binding signal (z-score),[13],-1.5
same,glycan array binding signal (z-score),[14],-0.709
same,glycan array binding signal (z-score),[15],-0.879
same,glycan array binding signal (z-score),[16],-0.186
same,glycan array binding signal (z-score),[17],-1.18
same,glycan array binding signal (z-score),[18],0.219
same,glycan array binding signal (z-score),[19],-0.386
same,glycan array binding signal (z-score),[20],-0.182
same,glycan array binding signal (z-score),[21],-0.515
same,glycan array binding signal (z-score),[22],0.24
same,glycan array binding signal (z-score),[23],-0.468
same,glycan array binding signal (z-score),[24],-1.15
same,glycan array binding signal (z-score),[25],-1
same,glycan array binding signal (z-score),[26],2.12
same,glycan array binding signal (z-score),Neu5Ac(a2-3)Gal(b1-4)Glc,2.85
same,glycan array binding signal (z-score),[27],0.499
same,glycan array binding signal (z-score),[28],-0.718
same,glycan array binding signal (z-score),[29],-0.625
same,glycan array binding signal (z-score),[30],-0.73
same,glycan array binding signal (z-score),[31],-0.921
same,glycan array binding signal (z-score),[32],0.133
same,glycan array binding signal (z-score),[33],0.444

# Quoted at random: 3 records from the list.
binder,measurement,setting,value
B1,glycan array binding signal (z-score),[6],0.424
same,glycan array binding signal (z-score),[12],-0.943
same,glycan array binding signal (z-score),[32],0.133
